The list shows a part of the results. These are further read-outs of the screen, such as a control signal, another cell line or another target. No call is given for them. The list favours compounds with an active or inconclusive main result. Potencies come from curve fits of mixed quality, noted in brackets.
Assay: qHTS Assay for Lipid Storage Modulators in Drosophila S3 Cells;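 as to cell number change: cells counted by Cell Tracker Red CMTPX staining in the red channel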
Conditions: BODIPY lipid droplet fluorescence, 18-24 h; for cell number change: measured here: cell count max response, cells fed with added oleic acid
In short: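 Drosophila S3 cells loaded with oleic acid (400 uM, as added) and compounds at several concentrations; lipid droplets imaged by 488-nm laser-scanning cytometry, 500–530 nm intensity and object ratio to cell channel. Percent activity normalized to 20 uM Triacsin C.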

[1] = measured here: lipid fluorescence (Fed channel) AC50, cells fed with added oleic acid
[2] = measured here: cell number channel AC50, cells fed with added oleic acid

## CCn1c(SCC(=O)N/N=C/C=C\c2ccccc2[N+](=O)[O-])nc2ccccc21
[1]
  AC50: 0.13 µM [rising, full curve, poor fit]

## CN1CCN(C(=O)c2cc3c(=O)n4ccccc4nc3s2)CC1
  cell number change: 7.98%
[1]
  AC50: 6.51 µM [falling, single point]

## O=C(CNC(=O)c1ccncc1)Nc1ccc(F)c(F)c1
[1]
  AC50: 0.0291 µM [rising, full curve, poor fit]

## O=S(=O)(Nc1ccc(S(=O)(=O)N2CCCC2)cc1)c1ccccc1Br
  cell number change: -11.9%
[1]
  AC50: 20.6 µM [rising, single point]

## O=c1c2cc(Cl)ccc2nc(-c2ccc(Cl)c(Cl)c2)n1O
  cell number change: 11.1%
[1]
  AC50: 0.0058 µM [rising, full curve, poor fit]

## CCNC(=O)Nc1ccc(-n2nc(C)c(C(=O)OCC)c2C)nc1
  cell number change: 19.6%
[2]
  AC50: 0.366 µM [rising, full curve]
[1]
  AC50: 0.517 µM [rising, full curve]

## CC(=O)Nc1ccc(SC[C@H](C)CN2CC[C@H](O)CCC2=O)cc1
  cell number change: 9.99%
[1]
  AC50: 6.51 µM [rising, single point]

## C=CCCN(Cc1ccccc1)S(=O)(=O)c1ccccc1Br
  cell number change: 7.3%
[1]
  AC50: 0.651 µM [rising, full curve]

## CCOc1c2ccc(C(=O)NCc3ccc(C)cc3)cc2nn1CCOC
  cell number change: 5.5%

## O=C(NC1CCOCC1)C1CCC(=O)N(CCc2cccc(F)c2)C1 (configuration not stated)
  cell number change: 13.3%
[1]
  AC50: 0.082 µM [rising, full curve, poor fit]

## CCOC(=O)Cc1cc(=O)c2c(=O)n(-c3ccccc3)[nH]c2[nH]1
  cell number change: -18.6%
[1]
  AC50: 32.6 µM [falling, partial curve, poor fit]

## O=C1OC(c2ccccc2)=N/C1=C\C=C\c1ccco1
  cell number change: -3.12%

## Cc1ccccc1Cn1cc(NC(=O)c2cc3nc(-c4ccco4)cc(C(F)(F)F)n3n2)cn1
  cell number change: -33%
[2]
  AC50: 7.31 µM [falling, full curve, poor fit]
[1]
  AC50: 10.3 µM [falling, partial curve]

## CCCN(CC(=O)Nc1ccccc1OC)C(=O)c1cccc(S(=O)(=O)Nc2ccc(OC)cc2)c1
[1]
  AC50: 29.1 µM [falling, partial curve, poor fit]

## COC(=O)Nc1nn(-c2ccc(Cl)cc2)c(=O)c(C#N)c1C
  cell number change: 24.9%
[1]
  AC50: 8.2 µM [rising, partial curve]

## O=[N+]([O-])c1ccc(N2CCN(Cc3ccccc3)CC2)s1
  cell number change: 0.692%
[1]
  AC50: 0.13 µM [falling, full curve, poor fit]

## COc1ccc(C(=O)Nc2cccc(/C(C)=N/NC(=O)c3ccc([N+](=O)[O-])c(C)c3)c2)cc1OC
  cell number change: 30.3%
[2]
  AC50: 3.26 µM [rising, full curve, poor fit]

## COc1ccc(/C=N/OCc2nc3c4c(ncn3n2)Oc2ccc3ccccc3c2C4c2ccccc2)cc1 (configuration not stated)
  cell number change: 140%
[1]
  AC50: 6.51 µM [falling, single point]

## CCCCC(=O)N1C/C=C\C(c2ccc(OC)cc2)N(Cc2ccc(F)cc2)C(=O)[C@H]1Cc1ccccc1 (some centres not stated)
  cell number change: -46.2%
[2]
  AC50: 29.1 µM [falling, single point]
[1]
  AC50: 29.1 µM [falling, single point]

## CC(C)CN1CCN(Cc2cccn2-c2cccnc2)CC1CCO (configuration not stated)
  cell number change: 14.8%
[1]
  AC50: 29.1 µM [rising, single point]

## CSc1ccc(NC(=O)NCc2cccnc2)cc1
  cell number change: -4.17%
[1]
  AC50: 0.103 µM [falling, full curve, poor fit]

## COc1cc([N+](=O)[O-])ccc1NC(=O)NNC(=O)CCc1ccccc1
  cell number change: 7.43%

## CN(C1CCCCC1)S(=O)(=O)c1ccc(S(=O)(=O)N2CCN(C(=O)c3ccccc3F)CC2)cc1
[2]
  AC50: 6.51 µM [rising, single point]
[1]
  AC50: 6.51 µM [rising, single point]

## CC(C)c1ccccc1NC(=O)COC(=O)c1ccc(Cl)c(S(=O)(=O)N2CCCCCC2)c1
  cell number change: -8.95%
[1]
  AC50: 14.6 µM [falling, partial curve, poor fit]

## CC1CC(C)CN(c2oc(-c3ccccc3Cl)nc2C#N)C1 (configuration not stated)
  cell number change: 10.5%
[1]
  AC50: 6.51 µM [rising, single point]

## CCOC(=O)[C@@H]1[C@H]2COc3ccccc3[C@H]2N2C(=O)N(c3cccc(Cl)c3)C(=O)[C@@]12C
  cell number change: -4.85%
[1]
  AC50: 0.146 µM [falling, full curve, poor fit]

## CCOc1ccc(N(CC(=O)Nc2ccccc2C)S(=O)(=O)c2c(C)noc2C)cc1
[1]
  AC50: 1.84 µM [rising, partial curve, poor fit]

## O=C(COc1cc2oc(=O)c3c(c2cc1Cl)CCCC3)NCC1CCC(C(=O)O)CC1 (configuration not stated)
  cell number change: -23.3%
[1]
  AC50: 6.51 µM [rising, single point]

## O=C(COC(=O)Cc1ccsc1)NCC12CC3CC(CC(C3)C1)C2
  cell number change: -121%
[2]
  AC50: 29.1 µM [falling, single point]
[1]
  AC50: 2.31 µM [rising, partial curve]

## CSCC[C@H](NC(=O)Cc1c(C)c2c(cc(C)c3c(C)c(C)oc32)oc1=O)C(=O)O
  cell number change: 27%
[2]
  AC50: 3.66 µM [rising, single point]

## COc1ccc(-c2c(-c3cc(OC)cc(OC)c3)n(C)c3ccc(-c4cccc5[nH]ccc45)cc23)cc1
  cell number change: -3.3%
[1]
  AC50: 0.0116 µM [falling, full curve, poor fit]

## Cc1nc2nc(NC(=O)c3ccco3)[nH]n2c(=O)c1C
  cell number change: -2.65%

## NC(=O)CSc1nnc(-c2cnccn2)n1Cc1ccco1
  cell number change: 18.5%
[1]
  AC50: 6.51 µM [falling, single point]

## Cc1ccc(Cn2c(=N)c(C(=O)NCC3CCCO3)cc3c(=O)n4cccc(C)c4nc32)cc1 (configuration not stated)
  cell number change: -1.49%

## Nc1ccc(C(=O)N/N=C2\CCCc3c2[nH]c2ccccc32)cc1
  cell number change: -11.5%
[1]
  AC50: 0.731 µM [falling, full curve, poor fit]

## NS(=O)(=O)c1cc2c(cc1Cl)NC(C1CC3C=CC1C3)NS2(=O)=O (configuration not stated)
[1]
  AC50: 3.26 µM [falling, full curve]

## CCc1ccc(S(=O)(=O)Nc2c(NC3CCCCC3)c3ccccc3oc2=O)cc1
  cell number change: -20.4%

## CN(C(=O)CC1C(=O)NCCN1Cc1cccc(F)c1F)C1CCOCC1 (configuration not stated)
  cell number change: 26.1%
[1]
  AC50: 6.51 µM [rising, partial curve, poor fit]

## CCC(Oc1ccccc1)C(=O)Nc1ccccc1C(=O)N1CCOCC1 (configuration not stated)
  cell number change: 1.05%
[1]
  AC50: 0.13 µM [rising, full curve, poor fit]

## CCCCOc1ccc(NC(=O)CN2CCN(Cc3ccccc3)CC2)cc1
  cell number change: -3.31%

## COc1ccc(F)cc1CN1CCN(C(=O)CCC(=O)Nc2nnc(CC(C)C)s2)CC1
  cell number change: -16.1%
[1]
  AC50: 0.58 µM [falling, single point]

## COc1ccc(-c2cc(C(=O)Nc3ccc(C)c(N)c3)c3ccccc3n2)cc1
  cell number change: 0.338%
[2]
  AC50: 0.58 µM [rising, full curve, poor fit]
[1]
  AC50: 2.31 µM [rising, partial curve]

## Cc1cc(=O)oc(C)c1C(=O)NCCN(C)Cc1ccccc1
[1]
  AC50: 6.51 µM [falling, single point]

## FC(F)Oc1ccc(NC(=S)NN2CCOCC2)cc1
  cell number change: 17.3%
[1]
  AC50: 29.1 µM [falling, single point]

## Cc1nc2c(cc1NC(=O)C(C)(C)C)nc(C)n2Cc1ccccc1
  cell number change: 21.1%

## Cc1cc(C)c(C#N)c(N2CCN(CCOc3ccc(Cl)cc3)CC2)n1
  cell number change: -13%
[1]
  AC50: 0.651 µM [rising, single point]

## c1ccc(-c2cc(-c3nnc4n3N=C(c3ccc5ccccc5c3)CS4)[nH]n2)cc1
  cell number change: -139%
[2]
  AC50: 29.1 µM [falling, single point]
[1]
  AC50: 29.1 µM [falling, single point]

## Cc1ccc(C)c(-n2nnnc2SCC(=O)Nc2c(C)n(C)n(-c3ccccc3)c2=O)c1
[2]
  AC50: 3.26 µM [rising, partial curve]

## COc1ccc(/C=N/NC(=O)c2cc(-c3ccccc3OC(C)C)nc3ccccc23)cc1CN1CCOCC1
[1]
  AC50: 0.00461 µM [rising, full curve, poor fit]

## O=C(Nc1cccc(F)c1)C1CCN(C(=O)N2CCOc3ccccc32)CC1
  cell number change: 1.73%

## O=C(CNS(=O)(=O)c1ccc2ccccc2c1)OCC(=O)c1ccc(Br)s1
  cell number change: 33.8%

## Cc1ccc(CNC(=O)C2CCC(=O)N(Cc3ccc(Cl)cc3)C2)cc1F (configuration not stated)
  cell number change: -11.3%

## CCCc1cc(=O)oc2cc(OCC(=O)Nc3ccccn3)ccc12
[1]
  AC50: 1.16 µM [falling, full curve]

## O=C(NCCO)C(c1ccccc1)c1ccccc1
  cell number change: -7.41%
[1]
  AC50: 0.116 µM [falling, full curve, poor fit]

## CC(=O)c1c(C)cc(C)c(CSc2ccccn2)c1C
  cell number change: 1.38%

## O=C(COc1ccc(Cl)cc1Cl)NCCSc1ccc(Cl)cc1
  cell number change: -15.8%
[1]
  AC50: 18.4 µM [rising, partial curve]

## O=C(Nc1nccs1)c1ccc(COc2c(F)c(F)cc(F)c2F)o1
  cell number change: -32.8%
[2]
  AC50: 32.6 µM [falling, single point]
[1]
  AC50: 1.84 µM [rising, single point]

## O=C(Nc1ccc2c(c1)OCCO2)c1ccc(Cl)c(S(=O)(=O)N2CCCCC2)c1
  cell number change: -3.49%
[1]
  AC50: 29.1 µM [rising, single point]

## O=C(NCC1CCCO1)c1cccc(S(=O)(=O)NCc2ccccc2)c1 (configuration not stated)
  cell number change: -40.6%
[2]
  AC50: 29.1 µM [falling, single point]
[1]
  AC50: 29.1 µM [falling, single point]

## Cc1ccc(Cl)cc1NC(=O)Cn1c(C)csc1=O
  cell number change: -0.518%
[1]
  AC50: 9.2 µM [rising, partial curve]

From PubChem BioAssay AID2685 (National Center for Advancing Translational Sciences (NCATS), 2010)
